Experimental data taken from the supplement of paper PMC10849652.
This is one part of the list.

Amino acid sequences for entries named in this document (tags omitted). A change or cut given only in a name is not applied to a line headed by its entry.
UniProt P19256, whole entry, looked up: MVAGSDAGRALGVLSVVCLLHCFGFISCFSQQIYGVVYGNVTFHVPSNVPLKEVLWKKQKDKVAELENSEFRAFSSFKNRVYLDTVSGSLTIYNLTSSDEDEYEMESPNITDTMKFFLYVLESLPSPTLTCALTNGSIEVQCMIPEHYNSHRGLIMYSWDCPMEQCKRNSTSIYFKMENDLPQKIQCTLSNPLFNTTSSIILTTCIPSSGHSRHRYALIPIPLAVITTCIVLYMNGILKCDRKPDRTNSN
UniProt P08962, whole entry, looked up: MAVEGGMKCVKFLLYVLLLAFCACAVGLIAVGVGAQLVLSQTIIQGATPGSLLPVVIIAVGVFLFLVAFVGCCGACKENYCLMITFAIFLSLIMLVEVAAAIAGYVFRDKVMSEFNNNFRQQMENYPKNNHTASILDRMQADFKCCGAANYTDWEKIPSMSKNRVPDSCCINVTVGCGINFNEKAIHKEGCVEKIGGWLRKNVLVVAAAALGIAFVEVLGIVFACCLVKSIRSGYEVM
UniProt Q92851: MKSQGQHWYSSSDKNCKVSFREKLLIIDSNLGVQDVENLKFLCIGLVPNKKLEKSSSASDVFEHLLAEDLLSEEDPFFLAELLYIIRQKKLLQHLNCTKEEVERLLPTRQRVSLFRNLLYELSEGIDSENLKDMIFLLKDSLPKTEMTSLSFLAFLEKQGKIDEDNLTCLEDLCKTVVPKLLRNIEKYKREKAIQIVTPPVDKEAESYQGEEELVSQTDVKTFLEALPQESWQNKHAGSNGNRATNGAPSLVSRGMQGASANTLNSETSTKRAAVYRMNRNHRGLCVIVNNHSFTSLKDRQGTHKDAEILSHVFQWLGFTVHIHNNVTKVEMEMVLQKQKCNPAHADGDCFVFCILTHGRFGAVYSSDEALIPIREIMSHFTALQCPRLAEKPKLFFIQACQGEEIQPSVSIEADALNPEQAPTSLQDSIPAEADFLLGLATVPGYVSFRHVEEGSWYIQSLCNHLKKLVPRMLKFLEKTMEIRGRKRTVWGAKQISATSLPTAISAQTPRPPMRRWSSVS
UniProt Q9BV29: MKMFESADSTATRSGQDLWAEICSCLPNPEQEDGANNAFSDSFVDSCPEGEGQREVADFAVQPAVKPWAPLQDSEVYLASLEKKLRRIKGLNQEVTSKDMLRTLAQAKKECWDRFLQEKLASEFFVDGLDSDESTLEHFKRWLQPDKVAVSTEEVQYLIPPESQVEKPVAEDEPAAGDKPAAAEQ
UniProt P19397: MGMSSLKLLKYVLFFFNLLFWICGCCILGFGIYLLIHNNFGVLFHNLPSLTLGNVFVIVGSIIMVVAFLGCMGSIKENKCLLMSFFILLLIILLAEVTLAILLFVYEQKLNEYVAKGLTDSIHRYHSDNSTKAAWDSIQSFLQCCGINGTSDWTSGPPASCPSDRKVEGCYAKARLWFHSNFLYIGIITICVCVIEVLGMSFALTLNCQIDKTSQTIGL
UniProt Q9NPF0: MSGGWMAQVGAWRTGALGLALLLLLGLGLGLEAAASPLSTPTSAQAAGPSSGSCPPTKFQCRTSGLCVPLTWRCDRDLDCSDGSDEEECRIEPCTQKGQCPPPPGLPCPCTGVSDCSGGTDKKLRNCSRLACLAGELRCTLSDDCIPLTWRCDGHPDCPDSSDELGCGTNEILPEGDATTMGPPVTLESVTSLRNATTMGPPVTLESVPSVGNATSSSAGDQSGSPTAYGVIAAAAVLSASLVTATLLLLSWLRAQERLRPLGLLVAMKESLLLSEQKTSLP
UniProt O75081: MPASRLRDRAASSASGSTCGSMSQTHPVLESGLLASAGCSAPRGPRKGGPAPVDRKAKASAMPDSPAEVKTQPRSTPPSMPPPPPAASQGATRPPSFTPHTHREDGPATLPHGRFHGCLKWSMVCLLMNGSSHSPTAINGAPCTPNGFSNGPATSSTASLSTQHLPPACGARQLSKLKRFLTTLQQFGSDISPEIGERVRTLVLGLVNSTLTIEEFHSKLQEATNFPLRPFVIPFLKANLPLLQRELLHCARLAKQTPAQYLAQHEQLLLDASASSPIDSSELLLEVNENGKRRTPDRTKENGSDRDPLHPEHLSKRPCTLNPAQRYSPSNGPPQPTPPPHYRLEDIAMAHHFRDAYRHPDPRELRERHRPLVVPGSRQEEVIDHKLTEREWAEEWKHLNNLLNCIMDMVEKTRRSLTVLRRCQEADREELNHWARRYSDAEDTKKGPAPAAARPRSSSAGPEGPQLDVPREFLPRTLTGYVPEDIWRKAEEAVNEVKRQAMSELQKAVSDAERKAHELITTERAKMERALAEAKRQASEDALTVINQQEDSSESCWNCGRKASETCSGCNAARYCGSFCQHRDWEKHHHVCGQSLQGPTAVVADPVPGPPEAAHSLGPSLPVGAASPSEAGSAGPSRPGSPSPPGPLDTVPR

Legend:
Assay in all cases: log2 fold change, soluble protein after heating vs DMSO (PISA); higher = thermal stabilisation; K562 cells, 10 uM, 30 min; active = over 0.2 and 3.5 SD of the protein, either way, in both replicates (recomputed)
[1] = compound: Cc1ccc(NC(=O)c2ccc(CN3CC[C@H](N(C)C)C3)c(C(F)(F)F)c2)cc1Nc1nccc(-c2cncnc2)n1 [bafetinib]
How it was run: (§1)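 Aliquots of K562 cells (2×10^6 cells/mL) treated with 10 μM compound for 30 min were heated for 3 min over 48°C-58°C. After pooling and extraction in PBS with 0.5% NP-40 at 4°C, soluble protein from a 21,000xg, 90 min spin was quantified by TMTpro 16plex LC-MS/MS with channel sums equalised. Thermal stability is expressed against control samples, from duplicates, as a log2 fold change.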

[2] = compound: Cc1cccc(CC(=O)N2CCc3c2ccc(-c2cn(C)c4ncnc(N)c24)c3F)n1
How it was run: as §1

[3] = compound: Cc1cn(-c2cc(NC(=O)c3ccc(C)c(Nc4nccc(-c5cccnc5)n4)c3)cc(C(F)(F)F)c2)cn1 [nilotinib]
How it was run: as §1

[4] = compound: Cc1nc(Nc2n[nH]c3c2CN(C(=O)N[C@H](CN(C)C)c2ccccc2)C3(C)C)c2sccc2n1
How it was run: as §1

[5] = compound: Cc1nc(Nc2ncc(C(=O)Nc3c(C)cccc3Cl)s2)cc(N2CCN(CCO)CC2)n1 [dasatinib]
How it was run: as §1

[6] = compound: Cc1ncc(-c2ccnc(Nc3ccc(S(C)(=O)=O)cc3)n2)n1C(C)C
How it was run: as §1

[7] = compound: Cn1cc(-c2ccc3c(c2)CCN3C(=O)Cc2cccc(C(F)(F)F)c2)c2c(N)ncnc21
How it was run: as §1

[8] = compound: Cn1cc(-c2ccc3nnc(C(F)(F)c4ccc5ncccc5c4)n3n2)cn1
How it was run: as §1

[9] = compound: Cn1cncc1[C@@](N)(c1ccc(Cl)cc1)c1ccc2c(c1)c(-c1cccc(Cl)c1)cc(=O)n2C [tipifarnib]
How it was run: as §1

[10] = compound: FC(F)(F)c1ccc(/C=C/c2nc(COc3ccc(CCCCn4ccnn4)cc3)co2)cc1 [mubritinib]
How it was run: as §1

[11] = compound: NC(=O)Nc1cc(-c2cccc(F)c2)sc1C(=O)N[C@H]1CCCNC1
How it was run: as §1

[12] = compound: NC(=O)c1cnc(N[C@@H]2CCCC[C@@H]2N)nc1Nc1cccc(-n2nccn2)c1
How it was run: as §1

[13] = compound: NC1(c2ccc(-c3nc4ccn5c(=O)[nH]nc5c4cc3-c3ccccc3)cc2)CCC1
How it was run: as §1

[14] = compound: NCC(=O)Nc1ccc(-n2nc(C(F)(F)F)cc2-c2ccc3c(ccc4ccccc43)c2)cc1
How it was run: as §1

[15] = compound: Nc1ccccc1NC(=O)c1ccc(CNC(=O)OCc2cccnc2)cc1 [entinostat]
How it was run: as §1

[16] = compound: O=C(CCCCCCC(=O)Nc1ccccc1)NO [vorinostat]
How it was run: as §1

[17] = compound: O=C(CCCCCCNC(=O)c1cnc(N(c2ccccc2)c2ccccc2Cl)nc1)NO [citarinostat]
How it was run: as §1

[18] = compound: O=C(O)c1ccc2c(c1)nc(Nc1cccc(Cl)c1)c1ccncc12 [silmitasertib]
How it was run: as §1

[19] = compound: O=C1NC(=O)C(c2cnc3ccccn23)=C1c1cn2c3c(cc(F)cc13)CN(C(=O)N1CCCCC1)CC2
How it was run: as §1

[20] = compound: c1cc(OCCN2CCCCC2)cc(-c2n[nH]c3ccc(-c4nnc[nH]4)cc23)c1
How it was run: as §1

Target	log2 fold change [1]	log2 fold change [2]	log2 fold change [3]	log2 fold change [4]	log2 fold change [5]	log2 fold change [6]	log2 fold change [7]	log2 fold change [8]	log2 fold change [9]	log2 fold change [10]	log2 fold change [11]	log2 fold change [12]	log2 fold change [13]	log2 fold change [14]	log2 fold change [15]	log2 fold change [16]	log2 fold change [17]	log2 fold change [18]	log2 fold change [19]	log2 fold change [20]
CD58 (UniProt P19256)	inactive: 0.047	inactive: -0.005	inactive: 0.057	inactive: -0.053	inactive: 0.026	inactive: -0.041	inactive: 0	inactive: -0.028	inactive: -0.031	inactive: 0.034	inactive: -0.093	inactive: 0.035	inactive: 0.106	inactive: 0.046	inactive: -0.053	inactive: 0.012	inactive: 0.073	inactive: -0.046	inactive: 0.013	inactive: -0.079
CD63 (UniProt P08962)	inactive: -0.069	inactive: -0.059	inactive: -0.023	inactive: 0.074	inactive: 0.021	inactive: 0.002	inactive: -0.047	inactive: 0.002	inactive: 0.043	inactive: -0.003	inactive: -0.026	inactive: -0.001	inactive: -0.05	inactive: -0.035	inactive: -0.004	inactive: -0.066	inactive: 0.026	inactive: 0.02	inactive: 0.051	inactive: -0.063
CASP10 isoform 4 (UniProt Q92851)	inactive: 0.001	inactive: -0.394	inactive: -0.087	inactive: -0.103	inactive: -0.301	inactive: 0.037	inactive: -0.044	inactive: 0.063	inactive: 0.119	inactive: 0.084	inactive: -0.089	inactive: -0.058	inactive: -0.084	inactive: -0.055	inactive: -0.05	inactive: 0.258	inactive: 0.123	inactive: 0.076	inactive: 0.089	inactive: -0.13
CCDC32 isoform 2 (UniProt Q9BV29)	inactive: 0.006	inactive: -0.084	inactive: 0.059	inactive: -0.05	inactive: 0.056	inactive: -0.024	inactive: 0.043	inactive: -0.152	inactive: 0.096	inactive: 0.078	inactive: -0.038	inactive: -0.114	inactive: 0.04	inactive: -0.04	inactive: 0.024	inactive: -0.01	inactive: 0.054	inactive: 0.029	inactive: -0.077	inactive: -0.103
CBL (UniProt P22681)	inactive: 0.009	inactive: 0.018	inactive: 0.063	inactive: -0.027	inactive: 0.008	inactive: 0.014	inactive: 0.054	inactive: -0.009	inactive: -0.022	inactive: 0.048	inactive: -0.023	inactive: 0.026	inactive: 0.003	inactive: -0.053	inactive: -0.031	inactive: -0.04	inactive: 0.025	inactive: -0.033	inactive: -0.054	inactive: -0.007
CD53 (UniProt P19397)	inactive: 0.091	active: -0.418	inactive: 0.069	inactive: 0.002	inactive: 0.078	inactive: -0.003	inactive: 0.145	inactive: 0.125	inactive: 0.057	inactive: 0.081	inactive: -0.15	inactive: 0.196	inactive: 0.133	inactive: 0.014	inactive: -0.044	inactive: -0.219	inactive: 0.013	inactive: -0.046	inactive: -0.037	inactive: -0.12
CD320 (UniProt Q9NPF0)	inactive: -0.063	inactive: -0.046	inactive: 0.016	inactive: 0.008	inactive: -0.004	inactive: 0.027	inactive: 0.065	inactive: -0.005	inactive: 0.064	inactive: 0.037	inactive: -0.005	inactive: -0.02	inactive: -0.069	inactive: -0.038	inactive: -0.015	inactive: -0.025	inactive: 0.032	inactive: 0.034	inactive: 0.012	inactive: -0.062
CBFA2T3 (UniProt O75081)	inactive: 0.059	inactive: 0.029	inactive: 0.112	inactive: -0.032	inactive: -0.058	inactive: -0.013	inactive: -0.085	inactive: -0.074	inactive: 0.117	inactive: -0.004	inactive: -0.02	inactive: 0.078	inactive: -0.036	inactive: -0.201	inactive: 0.019	inactive: 0.019	inactive: 0.013	inactive: 0.073	inactive: 0.058	inactive: -0.117
